## Percent effect of library compounds

Mtb cholesterol medium: 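Growth of Mycobacterium tuberculosis over 4 days (cholesterol / DPPC medium with tyloxapol); the read-out is not stated. Tested at 50 µM. Higher reads as more growth inhibition (inferred: compounds with an IC50 in retests scored well above the rest). Size under these conditions: about 69,000 compounds, about 370 of them at 50% or above in at least one test.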
Mtb glucose medium: 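Whole-cell growth test on Mycobacterium tuberculosis, read after 3 days in glucose-containing 7H9 medium; the read-out is not stated. Concentration: 50 µM. Higher reads as more growth inhibition (inferred: compounds with an IC50 in retests scored well above the rest). Size under these conditions: about 69,000 compounds, about 760 of them at 50% or above in at least one test.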

The filed quantity is “Percent Effect” (%).
The record does not define 0% and 100%; most values in the screen are far below 50% and negative numbers occur (in some assays of this library far below -100).
Compounds were drawn at random from those tested, without regard to their results.
Two or more numbers in one place are separate tests of the same structure; such repeats can differ widely.

structure | Mtb cholesterol medium | Mtb glucose medium
CS(=O)(=O)N1CCC(C(=O)NCCCn2cc(Cl)cn2)CC1 | 17.56% | 1.401% and 6.979%
CNCC(=O)N1CCCC(c2cccc(Nc3nc(C)cc(C)n3)n2)C1 (centres unmarked) | -10.58% | -59.27%
CCc1cc(N2C[C@H](C3CC3)[C@@H](N)C2)nc(N2CCCC2)n1 | -1.889% | -5.416% and -2.197%
NC(=O)CCn1ccc(NC(=O)c2ccc(Br)o2)n1 | 3.187% and -2.225% | -34.35%
COC(=O)C(C)(C)NC(=O)C1CC(=O)N(CC(F)(F)F)C1 (centres unmarked) | 4.334% | -18.74%
Cc1ccc(CN2Cc3nccn3CC(Cn3cncn3)C2)s1.O=C(O)C(F)(F)F (centres unmarked) | -0.7426% | -14.41%
O=C1CCc2cc(S(=O)(=O)NC(=O)c3ccc4c(c3)OCO4)ccc2N1 | -8.278% | -18.51%
COc1c(CNCCNC(=O)c2ccccc2F)c(C)nn1C | -3.285% | -3.746% and -27.49%
CSCc1cccc(C(=O)N2CCN(CC(C)O)CC2)c1 (centres unmarked) | -3.224% | 5.851%
CC(NC(=O)NCCCc1n[nH]c(N)c1C#N)c1ccccc1 (centres unmarked) | 12.95% | 11.14%
CCOCCCNC(=O)C(NC(=O)Cc1cccs1)c1ccc(C)cc1 (centres unmarked) | -28.49% | -25.18%
CC(=O)N1CCC(CCNC(C)c2cc(F)cc(F)c2)CC1 (centres unmarked) | 8.575% | -9.697%
CC1(C)CN(CC(O)C(C)(C)C)C(=O)CN(C(=O)c2ccccc2)C1 (centres unmarked) | -4.208% | 22.66%
Cc1ccc(C)c2c(O)cc(CNCCNC(=O)C(C)C)nc12 | -7.314% | -8.603% and -4.952%
Cc1nn(CC(=O)N2CCN(Cc3cnn(C)c3C)CC2)cc1Br | -11.62% | 5.152%
CCNC(=O)[C@@H]1C[C@H](NC(=O)c2cncnc2C)CN1CCCSC | 11.11% | 12.61%
CCN(CC)c1ncc(Cl)c(C(=O)NC2CC2)n1 | -4.333% | -3.39%
O=C(NCCc1c[nH]c2ccccc12)C1CCC(Cn2cnnn2)CC1 (centres unmarked) | -34.6% | -8.585%
Cn1ccnc1CNc1c(F)cccc1-n1cccn1 | -22.28% | -1.235%
N#CC1COCCN1S(=O)(=O)c1ccc2c(c1)CCC2 (centres unmarked) | -23.39% | 0.4363% and -29.45%
Cc1sc(NC(=O)CN(C)CCOc2cccc(F)c2)c(C)c1C | -7.437% | 0.8154% and 5.821%
COCCCN(Cc1ccncc1)C(=O)CSc1ccc(F)cc1 | 3.529% | -16.39%
CN1N=C(C(=O)NCCc2csc(-c3ccccc3)n2)CCC1=O | 4.607% | -15.12%
Cc1c(I)cccc1C(=O)NCc1nnc[nH]1 | -7.632% and -8.204% | -16.1% and 2.73%
O=c1[nH]nc2c(S(=O)(=O)N3CCOCC3)cccn12 | 9.512% | 17.01%
O=S(=O)(CCCn1cncn1)Cc1cccc(F)c1 | 2.378% | -1.272% and 14.96%
Cc1cc(C(=O)Nc2cccn(Cc3ccccc3)c2=O)no1 | 11.06% | -15.89%
O=S1(=O)CCC(n2cc(C3=CCN(CCn4cccc4)CC3)cn2)C1 (centres unmarked) | 2.429% | -7.54%
[H][C@@]12COC[C@@H](CC(=O)N3CCCO3)[C@]1([H])CN(Cc1c(C)noc1C)C2 | 6.807% and -10.25% | 6.45%
CN(C)Cc1cn(CC2CCCN(c3nccc4occc34)C2)nn1 (centres unmarked) | 4.632% | 12.63%
C=C(C)COc1ccc(C(=O)NCC2CC(CC)=NO2)cc1 (centres unmarked) | 2.557% | 4.038%
CC(=O)N1N=C(c2ccco2)OC1C(=O)NCC(C)C (centres unmarked) | -4.04% | -10.81%
COCCOCC(=O)NC(C#N)c1cccc(Cl)c1Cl (centres unmarked) | -10.3% | -17.8%
CC(NC(=O)N(C)Cc1ccsc1)c1nncn1C (centres unmarked) | -15.49% | -10.93%
CC(C)c1ccccc1OCCNC(=O)N1CCC(CC(N)=O)CC1 | 14.18% | 20.54%
COC1(CNC(=O)c2ccsc2)CCSC1 (centres unmarked) | 23.12% | 22.23%
CC(=O)N1N=C(c2ccccc2)OC1C(=O)NCCc1ccc(Cl)cc1 (centres unmarked) | -15.07% | -1.942%
O=C(O)C(F)(F)F.O=C(O)C(F)(F)F.c1ccc(CN2CCn3c(Cn4cncn4)cnc3C2)nc1 | -8.645% and 3.712% | -33.64%
COCCOCC1CCN(C(=O)c2ccc3[nH]cnc3c2)C1 (centres unmarked) | -2.69% | -22.96%
O=C(COc1ccc(C(F)(F)F)cc1)NS(=O)(=O)c1cccnc1 | 5.761% | -14.67%
[H][C@]12CN(Cc3cnn(C)c3)C[C@@]1([H])OCCN(C(=O)c1cccn1C)C2 | 8.197% | 21.21%
O=C(CSc1nnc(N2CCOCC2)s1)NCc1cccs1 | -7.836% | 0.4088% and 0.01589%
FC1(F)CCN(Cc2cccnc2)CC12CCN(c1cnccn1)C2.O=C(O)C(F)(F)F.O=C(O)C(F)(F)F.O=C(O)C(F)(F)F (centres unmarked) | -3.338% | 19.47%
CC(=O)N1CC2(CCN(C(=O)c3ccc4c(c3)OCCO4)CC2)C1 | -36.93% | -44.47%
COCC1CC2(CCN(C(=O)c3cccn3C)CC2)CN1C(C)C (centres unmarked) | -2.485% and 1.279% | 11.26%
CCCc1nc(C(=O)N2CCN(S(=O)(=O)CC)CC2)cs1 | -18.29% | -8.253% and 1.414%
CC(C)c1nc(CC(=O)N2CCCC(n3cncn3)C2)cs1 (centres unmarked) | -1.771% | -4.432%

Repeated from the top, 5 entries:

- CS(=O)(=O)N1CCC(C(=O)NCCCn2cc(Cl)cn2)CC1 | Mtb cholesterol medium: 17.56%; Mtb glucose medium: 1.401% and 6.979%
- CNCC(=O)N1CCCC(c2cccc(Nc3nc(C)cc(C)n3)n2)C1 (centres unmarked) | Mtb cholesterol medium: -10.58%; Mtb glucose medium: -59.27%
- CCc1cc(N2C[C@H](C3CC3)[C@@H](N)C2)nc(N2CCCC2)n1 | Mtb cholesterol medium: -1.889%; Mtb glucose medium: -5.416% and -2.197%
- NC(=O)CCn1ccc(NC(=O)c2ccc(Br)o2)n1 | Mtb cholesterol medium: 3.187% and -2.225%; Mtb glucose medium: -34.35%
- COC(=O)C(C)(C)NC(=O)C1CC(=O)N(CC(F)(F)F)C1 (centres unmarked) | Mtb cholesterol medium: 4.334%; Mtb glucose medium: -18.74%

The values are deposited in ChEMBL (CHEMBL3988442, “University of Dundee, Small-Polar-MMV Screening Library” (2021)).